Reference: patent US20260008839A1 (BRIGHAM AND WOMEN S HOSPITAL, published 2026)
Results are given in words; binding and its absence hold for the method and conditions named. Some entries that bind do so weakly or less than the wild type.

The chains behind the UniProt entries cited, without tags or fusion partners. Residues count along the entry.
UniProt Q9NR61, residues 27-529: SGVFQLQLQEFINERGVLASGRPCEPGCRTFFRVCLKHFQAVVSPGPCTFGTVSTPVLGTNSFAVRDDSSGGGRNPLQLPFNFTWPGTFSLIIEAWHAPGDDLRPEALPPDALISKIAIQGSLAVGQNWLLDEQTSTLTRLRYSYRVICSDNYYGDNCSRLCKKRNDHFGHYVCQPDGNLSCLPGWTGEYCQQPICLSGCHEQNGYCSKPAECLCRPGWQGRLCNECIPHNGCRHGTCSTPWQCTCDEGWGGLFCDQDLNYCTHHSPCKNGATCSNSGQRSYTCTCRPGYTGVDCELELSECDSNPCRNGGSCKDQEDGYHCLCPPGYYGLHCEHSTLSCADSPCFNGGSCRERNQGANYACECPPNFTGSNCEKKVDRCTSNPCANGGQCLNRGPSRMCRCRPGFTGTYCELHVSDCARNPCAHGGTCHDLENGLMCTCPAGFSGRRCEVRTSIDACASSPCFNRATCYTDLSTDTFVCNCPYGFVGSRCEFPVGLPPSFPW

Legend:
Dll4 [1] = assay: flow cytometry, blocking: DLL4-expressing Cf2Th cells + purified antibody, then NOTCH1-Fc and PE anti-IgG Fc; blocked ligand NOTCH1-Fc; three experiments
Dll4 [2] = assay: flow cytometry, blocking, hybridoma supernatants; sheet title as in FIG. 1, legend paragraph 45 names no cells; blocked ligand NOTCH1-Fc as in FIG. 1
Dll4 [3] = assay: flow cytometry, blocking: DLL4-expressing Cf2Th cells + supernatant, then NOTCH1-Fc and PE anti-IgG Fc; blocked ligand NOTCH1-Fc; three determinations merged
human DLL4 (human) [4] = target: human DLL4 (human) (UniProt Q9NR61); assay: SPR, Biacore 3000, 25 C: human DLL4 amine-coupled to a CM5 chip, antibody injected as analyte
human DLL4 (human) [5] = target: human DLL4 (human) (UniProt Q9NR61); assay: SPR Biacore 3000, human DLL4 amine-coupled to CM5 chip, antibody injected
porcine DLL4 (porcine) [6] = assay: SPR, Biacore 3000, 25 C: porcine DLL4 amine-coupled to a CM5 chip, antibody injected as analyte
porcine DLL4 (porcine) [7] = assay: SPR Biacore 3000, porcine DLL4 amine-coupled to CM5 chip, antibody injected
human DLL4 (human) [8] = target: human DLL4 (human) (UniProt Q9NR61); assay: SPR Biacore 3000, full kinetics, conclusion
Dll4 [9] = assay: flow cytometry, blocking: DLL4-expressing HEK293T cells + purified antibody, then NOTCH1-Fc and PE anti-IgG Fc; blocked ligand NOTCH1-Fc; three experiments
Dll4 [10] = assay: flow cytometry, blocking: DLL4-expressing Cf2Th cells + 8D2 supernatant ('serum'), then recombinant NOTCH1-Fc and PE anti-IgG Fc; blocked ligand NOTCH1-Fc
porcine DLL4 (porcine) [11] = assay: SPR, Biacore 3000, 25 C: porcine DLL4 amine-coupled to a CM5 chip, 8D2 injected three times first, then 8C2
Dll4 [12] = assay: flow cytometry, blocking: DLL4-expressing HEK293T cells + purified 8C2, then recombinant NOTCH1-Fc and PE anti-IgG Fc; blocked ligand NOTCH1-Fc
Dll4 [13] = assay: flow cytometry, blocking: DLL4-expressing Cf2Th cells + purified 8C2, then recombinant NOTCH1-Fc and PE anti-IgG Fc; blocked ligand NOTCH1-Fc

Measured: binding

B1: Monoclonal Antibody 2H10 (antibody, V domains shown)
VH: QVQVKESGPGLVQPSQTLSLTCIVSGFSLSSYHVSWVRQPPGKSLVWMGTIWAGGGTNYNSAVQSRLSISRDTSKSQVFLKVNSLQPEDTGTYYCARHYYDGYYHGPYFDYWGQGVMVTV
VL: SPASLSASLGETVTFECRASEDIYTNLAWYQQKPGNSPQLLIYDANTLADGVPSRFSGSGSGTQFSLKINSLQSEDVASYFCQQYDSYPWTFGGGTKLELRR
notes: Rat hybridoma monoclonal antibody, IgG type (captured by goat anti-rat Fc); also called BMH-2H10-A7
binds: Dll4 [1] | Dll4 [2] | Dll4 [3]

B2: Monoclonal Antibody 8D2 (antibody, V domains shown)
VH: SGGGLVQPGRSMKLSCAASGFTFSNYDMAWVRQDPKKGLEWVATISYDGRSTYYRDSVKGRFTISRDNAKSTLYLQMDSLRSEDTATYYCKDYDGHYHPYGMEAWGQGISVTVSS
VL: DIVLTQSPALAVTLGQRATISCRASQSVTISNYNLMQWYQQRPGRQPKLLIYDASNLASGIPARFSGSGSGTDFTLTIDPVQADDIATYYCQQSRDDPRTFGGGTKLELR
notes: Rat hybridoma monoclonal antibody, IgG type (captured by goat anti-rat Fc); also called BMH-8D2-D10; rat 8D2
binds: human DLL4 (human) [4] | human DLL4 (human) [5] | Dll4 [1] | Dll4 [2] | Dll4 [3] | porcine DLL4 (porcine) [6] | porcine DLL4 (porcine) [7] | human DLL4 (human) [8] | Dll4 [9] | Dll4 [10]

B3: Monoclonal Antibody 8C2 (antibody, V domains shown)
VH: QVQLKESGPGLVQPSQTLSLTCTVSGISISIYGVSWVRQPPGKGLEWMGGIWGDGSTDYNSALKSRLSLSRDTSKSQVFLKMNSLQTEDTAIYFCTLSGDFDYWGHGVLVTVSS
VL: DIQLTQSPASLSASLDEIVTITCQASLDIGNWLAWYQQKTGKSPQLLIYGATSLAGGVPSRFSGSRSGTQYSLKISKLQVEDTGIYYCLQHYRAPFTFGSGTKLEI
notes: Rat hybridoma monoclonal antibody, IgG type (captured by goat anti-rat Fc); also called BMH-8C2-D10; BMH-8C2-D4
binds: porcine DLL4 (porcine) [11] | Dll4 [1] | Dll4 [12] | Dll4 [13] | Dll4 [2] | Dll4 [3] | porcine DLL4 (porcine) [6] | Dll4 [9]

B4: 5D7 (antibody, V domains shown)
VH: QVQLKESGPGLVQPSETLSLTCTVSGFSLTRYAVNWVRQPPGKGLEWMGRVMDDGDTSHNSALNSRLNISRDTSKNQVFLKMNSLQTEDPGTYFCAREGDGFSWYGMDAWGQGTSVTVSS
VL: DIVLTQSPALAVSLGQRATISCRASQSVSISSYNLMQWYQQKPGHQPKLLVYAASNLASGIPARFSGSGSGTDFALTIDPVQADDVATYHCQQSKDHPPTFGGGTKLELK
binds: Dll4 [2] | Dll4 [3]
